Values of other authors, collected in patent US6528516B1, “Methods for reducing intraocular pressure using A3 adenosine receptor antagonists” (Trustees of the University of Pennsylvania, The Center for …, priority 1998, dated 2003).

Molecular target: protein kinase C (PKC)
Details: read-out: Ki for inhibition of protein kinase C; depending on the assay system; cited from earlier work

Which Ki does the source give for CC/C(=C(\c1ccccc1)c1ccc(OCCN(C)C)cc1)c1ccccc1 [tamoxifen] here?
The Ki was 5 to 100 µM.
